Data reported in the supplement of paper PMC6445147.
Single values of this data set are uncertain.

B1: human tRNA-Pro; a variant is named by its letters at N, in order (parent)
chain: GGCTCGTTGGTCTAGNGGTATGATTCTCGCTTAGGGTGCGAGAGGTCCCGGGTTCNNATCCCGGACGAGCCC

What was measured:
[1] = variants of: B1; test: tRNA Pol-III promoter activity, log2 (circRNA frequency / plasmid DNA frequency) (log2 ratio); higher = stronger promoter activity; details: HEK293T; construct: no Pol-II promoter ((-)CMV library)
[2] = variants of: B1; test: tRNA 3' processing efficiency (processed reads / all reads, maximum-likelihood estimate) (fraction); higher = more efficient 3' processing; details: HEK293T; construct: no Pol-II promoter ((-)CMV library)
[3] = variants of: B1; test: tRNA 5' processing efficiency (processed reads / all reads, maximum-likelihood estimate) (fraction); higher = more efficient 5' processing; details: HEK293T; construct: CMV Pol-II promoter ((+)CMV library, decapped)

| Variant | tRNA Pol-III promoter activity (log2) [1] | tRNA 3' processing efficiency [2] | tRNA 5' processing efficiency [3] |
| --- | --- | --- | --- |
| GGCTCGTTGGTCTAGGGGTCTGATTCTCGCTTAGGGTGCGAGAGGTCCCGGGATCAAATCCCGGACGAGCCC | 1.28 | 0.25 |  |
| GGCTCGTTGGTCTAGGGGTCTGATTCTCGCTTAGGGTGCGAGAGGTCCCGGGTTCAAGGCCCGGACGAGCCC | 5.45 | 0.13 |  |
| GGCTCGTTGGTCTAGGGGTCTGATTCTCGCTTAGGGTGCGAGAGGTCCCGGGTTCAAGACCCGGACGAGCCC | 6.51 | 0.17 |  |
| GGCTCGTTGGTCTTGAGGTATGATTCTCGCTTAGGGTGCGAGAGGTCCCGGGTTCAAAGCCCGGACGAGCCC | 3.05 | 0.33 |  |
| GGCTCGTTGGTCTTGCGGTATGATTCTCGCTTAGGGTGCGAGAGGTCCCGGGTTCAAAGCCCGGACGAGCCC | 4.47 | 0.38 |  |
| GGCTCGTTGGTCTAGTGGTCTGATTCTCGCTTAGGGTGCGAGAGGTCCCGGGTACAAATCCCGGACGAGCCC | 3.46 | 0.4 |  |
| GGCTCGTTGGTCTTGTGGTATGATTCTCGCTTAGGGTGCGAGAGGTCCCGGGTTCAAAGCCCGGACGAGCCC | 2.08 | 0.4 |  |
| GGCTCGTTGGTCTTGGGGTATGATTCTCGCTTAGGGTGCGAGAGGTCCCGGGTTCAAACCCCGGACGAGCCC | 3.13 | 0.32 |  |
| GGCTCGTTGGTCTTGGGGTATGATTCTCGCTTAGGGTGCGAGAGGTCCCGGGTTCAAAGCCCGGACGAGCCC | 0.104 | 0.44 |  |
| GGCTCGTTGGTCTAGCGGTCTGATTCTCGCTTAGGGTGCGAGAGGTCCCGGGTTCAATGCCCGGACGAGCCC | 5.26 | 0.57 |  |
| GGCTCGTTGGTCTAGTGGTCTGATTCTCGCTTAGGGTGCGAGAGGTCCCGGGATCAAATCCCGGACGAGCCC | 4.63 | 0.1 | 0.25 |
| GGCTCGTTGGTCTAGGGGTCTGATTCTCGCTTAAGGTGCGAGAGGTCCCGGGTTCAAGTCCCGGACGAGCCC | 3.21 | 0.33 |  |
| GGCTCGTTGGTCTAGGGGTCTGATTCTCGCTTAGGGTGCGAGAGGTCCCGGGTTCAACACCCGGACGAGCCC | 3.93 | 0.67 |  |
| GGCTCGTTGGTCTAGGGGTCTGATTCTCGCTTAGGGTGCGAGAGGTCCCGGGTTCAAGTCCCGGACGAGCCC | 1.29 | 0.57 | 0.14 |
| GGCTCGTTGGTCTAGGGGTCTGATTCTCGCTTAGGGTGCGAGAGGTCCCGGGTTCAATGCCCGGACGAGCCC | 3.45 | 0.25 |  |
| GGCTCGTTGGTCTAGGGGTCTGATTCTCGCTTAGGGTGCGAGAGGTCCCGGGTTCAATACCCGGACGAGCCC | 6.51 | 0.5 |  |
| GGCTCGTTGGTCTAGCGGTCTGATTCTCGCTTAGGGTGCGAGAGGTCCCGGGTTCAAGTCCCGGACGAGCCC | 2.93 | 0.25 |  |
| GGCTCGTTGGTCTAGGGGTCTGATTCTCGCTTAGGGTGCGAGAGGTCCCGGGTTCAAATCCCGGACGAGCCC | -1.14 | 0.5 | 0.45 |

Single records, from the list above.
GGCTCGTTGGTCTTGTGGTATGATTCTCGCTTAGGGTGCGAGAGGTCCCGGGTTCAAAGCCCGGACGAGCCC in the list: tRNA Pol-III promoter activity (log2) [1]: 2.08; tRNA 3' processing efficiency [2]: 0.4
GGCTCGTTGGTCTTGCGGTATGATTCTCGCTTAGGGTGCGAGAGGTCCCGGGTTCAAAGCCCGGACGAGCCC in the list: tRNA Pol-III promoter activity (log2) [1]: 4.47; tRNA 3' processing efficiency [2]: 0.38
